In patent US20030113665A1, “Optical data medium containing, in the information layer, a dye as a light-absorbing compound” (priority 2001, published 2003):

Assay: Recording/readout test of optical disc with spin-coated merocyanine information layer

SMILES: CN1/C(=C\C=C(\C#N)c2nc3ccccc3s2)C(C)(C)c2ccccc21 [Example 76]
- modulation ratio (reflectivity from the marks/RInit) (0.69 μm mark, 404 nm): ~80%
- carrier-to-noise ratio (C/N), groove (30 kHz RBW, 404 nm, NA 0.85, 0.69 μm mark, groove): 57.4 dB
- carrier-to-noise ratio (C/N), land (30 kHz RBW, 404 nm, NA 0.85, 0.69 μm mark, land): 53.0 dB
- C/N value, small mark recording (mark and space length 0.17 μm, 1 pulse inside one mark): 40.0 dB
